In PMC11786349:
These are yes or no findings as the source states them, for the method shown. Binding seen in cells or lysates may run through a third protein. Some binding calls cover weakened binding; strength is not graded here.

What was measured:
[1] = molecular target: GST-TRPV1 (1-390) (UniProt O35433); experiment: pull-down; GST-tagged truncated TRPV1 from E. coli purified on GST magnetic beads, combined in vitro with protein solutions derived from cells; SDS-PAGE and western blot; only the target purified
[2] = molecular target: TRPV1 T406A, expressed from plasmid (UniProt O35433); experiment: co-IP; exogenous (transfected) proteins in 293T cells; RIPA lysate, antibody on magnetic beads, western blot
[3] = molecular target: TRPV1 wild type, expressed from plasmid in 293T cells (UniProt O35433); experiment: as above
[4] = molecular target: transient receptor potential vanilloid 1 (TRPV1), endogenous in DRG neurons (rat (endogenous in DRG neurons)) (UniProt O35433); experiment: co-IP; endogenous proteins in DRG neurons; RIPA lysate, antibody on magnetic beads, western blot

CDK5 in the protein solution derived from cells used for the GST pulldown (from UniProt Q03114 1-292) (enzyme)
binding [1]: binds

CDK5, expressed from plasmid in 293T cells (from UniProt Q03114 1-292) (enzyme)
binding [2]: binds | binding [3]: binds

cyclin-dependent kinase 5 (CDK5), endogenous in DRG neurons (from UniProt Q03114 1-292) (enzyme)
binding [4]: binds
